Results on two molecules are retold here after article PMC9612522.

Sequences of proteins named here, by UniProt entry; tags and fusion partners are left off.
UniProt O96013: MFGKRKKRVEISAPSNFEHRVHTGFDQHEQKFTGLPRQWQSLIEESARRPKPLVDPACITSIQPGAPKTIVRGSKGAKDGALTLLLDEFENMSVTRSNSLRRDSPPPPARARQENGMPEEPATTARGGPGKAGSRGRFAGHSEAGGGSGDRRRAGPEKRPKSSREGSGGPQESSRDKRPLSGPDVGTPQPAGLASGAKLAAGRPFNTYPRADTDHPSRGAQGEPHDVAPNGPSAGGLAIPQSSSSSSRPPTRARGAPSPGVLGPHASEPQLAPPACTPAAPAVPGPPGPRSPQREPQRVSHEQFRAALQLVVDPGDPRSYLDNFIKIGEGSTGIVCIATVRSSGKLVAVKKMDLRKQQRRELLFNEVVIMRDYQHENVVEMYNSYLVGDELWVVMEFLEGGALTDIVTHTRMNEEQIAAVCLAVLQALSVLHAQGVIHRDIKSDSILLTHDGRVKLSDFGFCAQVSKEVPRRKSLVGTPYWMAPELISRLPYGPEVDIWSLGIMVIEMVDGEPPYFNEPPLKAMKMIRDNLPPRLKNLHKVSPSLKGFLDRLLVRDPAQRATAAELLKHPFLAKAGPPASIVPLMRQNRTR

The target in this assay is Flag-Pak4 (UniProt O96013). The experiment in a line: co-IP; HEK293T cells (the legend says HEK293) co-expressing Flag-Pak4 and EGFP fusions; IP with anti-GFP or anti-Flag, immunoblot with anti-GFP or anti-Flag; lysis in 50 mM Tris-HCl pH 7.5, 150 mM NaCl, 2 mM EDTA, 1% NP-40, 4°C. (In general: A western blot detects proteins with antibodies after separation by electrophoresis.)

Results are given in words; binding and its absence hold for the method and conditions named. Binding seen in cells or lysates may run through a third protein. Some results given as binding are weak or reduced against the parent protein; the word gives no strength. Sequences can lack the tags named with a protein.

B1: EGFP-Inka1 (protein, UniProt Q9CX62 1-282)
chain: MHSARLDSFLSQLRWELLCARDTGSPPMSGPLQPKPRTDQNVQPKRQFRASDVLEEDSVCCVEEEEEEGLVAEDKGLPLGCPREHALDWDSGFSEVSGSTWREEEPSVPQRQAPRERPPHSQRFSVSDIPMRSRAAVTNIPPAHRPRPKSTPDACLEHWQGLEAEDWTAALLNRGRSRQPLVLGDNCFADLVHNWMELPEATSEGSDGDVPRARARPPQFLLGLSEQLRRRLARARRTAMASKRLSCPPRSEPDLPADISRFAALMNCRSRQPIIYNDVSYL
For B1, the binding entry was “binds”.

B2: EGFP-Inka2 (protein, UniProt Q80VY2-2 1-281)
chain: MSMKEVGDGLQDQMNCMMGALQELKLLQVQTALEQLEISGGTPTFSCPESSQEQPECPRWQGSGGPAGPAAWTSSSQPSFDSSPKLPCRRSVCGKELAVLPKTQLPEEHQSCTQQGTEWVEPDDWTSTLMSRGRNRQPLVLGDNVFADLVGNWLDLPELEKGGEKGETGGSIEPKGEKGQSRELGRKFALTANIFRKFLRSVRPDRDRLLKEKPGWMTPMVSESRAGRSKKVKKRSLSKGSGRFPFSSTGEPRHIETPATSSPKALEPSCRGFDINTAVWV
On to B2, for which the binding result is listed as “binds”.
